## Primary screen of a compound library

Sequences of proteins named here, by UniProt entry; tags and fusion partners are left off. Residues count along the entry.
UniProt A4I591, 1-473: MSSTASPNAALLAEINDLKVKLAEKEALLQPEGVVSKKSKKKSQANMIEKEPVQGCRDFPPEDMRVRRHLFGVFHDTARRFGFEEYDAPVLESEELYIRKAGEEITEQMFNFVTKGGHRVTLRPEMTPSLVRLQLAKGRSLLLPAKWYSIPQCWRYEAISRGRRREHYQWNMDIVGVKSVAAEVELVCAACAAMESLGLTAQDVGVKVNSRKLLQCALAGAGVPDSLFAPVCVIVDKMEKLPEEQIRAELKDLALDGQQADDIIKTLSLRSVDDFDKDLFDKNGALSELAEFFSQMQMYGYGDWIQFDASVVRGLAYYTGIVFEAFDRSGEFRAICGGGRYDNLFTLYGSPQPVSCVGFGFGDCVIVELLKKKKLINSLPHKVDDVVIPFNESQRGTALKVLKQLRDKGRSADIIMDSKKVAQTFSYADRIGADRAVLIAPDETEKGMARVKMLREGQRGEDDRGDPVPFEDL
UniProt I6X8D2, whole entry: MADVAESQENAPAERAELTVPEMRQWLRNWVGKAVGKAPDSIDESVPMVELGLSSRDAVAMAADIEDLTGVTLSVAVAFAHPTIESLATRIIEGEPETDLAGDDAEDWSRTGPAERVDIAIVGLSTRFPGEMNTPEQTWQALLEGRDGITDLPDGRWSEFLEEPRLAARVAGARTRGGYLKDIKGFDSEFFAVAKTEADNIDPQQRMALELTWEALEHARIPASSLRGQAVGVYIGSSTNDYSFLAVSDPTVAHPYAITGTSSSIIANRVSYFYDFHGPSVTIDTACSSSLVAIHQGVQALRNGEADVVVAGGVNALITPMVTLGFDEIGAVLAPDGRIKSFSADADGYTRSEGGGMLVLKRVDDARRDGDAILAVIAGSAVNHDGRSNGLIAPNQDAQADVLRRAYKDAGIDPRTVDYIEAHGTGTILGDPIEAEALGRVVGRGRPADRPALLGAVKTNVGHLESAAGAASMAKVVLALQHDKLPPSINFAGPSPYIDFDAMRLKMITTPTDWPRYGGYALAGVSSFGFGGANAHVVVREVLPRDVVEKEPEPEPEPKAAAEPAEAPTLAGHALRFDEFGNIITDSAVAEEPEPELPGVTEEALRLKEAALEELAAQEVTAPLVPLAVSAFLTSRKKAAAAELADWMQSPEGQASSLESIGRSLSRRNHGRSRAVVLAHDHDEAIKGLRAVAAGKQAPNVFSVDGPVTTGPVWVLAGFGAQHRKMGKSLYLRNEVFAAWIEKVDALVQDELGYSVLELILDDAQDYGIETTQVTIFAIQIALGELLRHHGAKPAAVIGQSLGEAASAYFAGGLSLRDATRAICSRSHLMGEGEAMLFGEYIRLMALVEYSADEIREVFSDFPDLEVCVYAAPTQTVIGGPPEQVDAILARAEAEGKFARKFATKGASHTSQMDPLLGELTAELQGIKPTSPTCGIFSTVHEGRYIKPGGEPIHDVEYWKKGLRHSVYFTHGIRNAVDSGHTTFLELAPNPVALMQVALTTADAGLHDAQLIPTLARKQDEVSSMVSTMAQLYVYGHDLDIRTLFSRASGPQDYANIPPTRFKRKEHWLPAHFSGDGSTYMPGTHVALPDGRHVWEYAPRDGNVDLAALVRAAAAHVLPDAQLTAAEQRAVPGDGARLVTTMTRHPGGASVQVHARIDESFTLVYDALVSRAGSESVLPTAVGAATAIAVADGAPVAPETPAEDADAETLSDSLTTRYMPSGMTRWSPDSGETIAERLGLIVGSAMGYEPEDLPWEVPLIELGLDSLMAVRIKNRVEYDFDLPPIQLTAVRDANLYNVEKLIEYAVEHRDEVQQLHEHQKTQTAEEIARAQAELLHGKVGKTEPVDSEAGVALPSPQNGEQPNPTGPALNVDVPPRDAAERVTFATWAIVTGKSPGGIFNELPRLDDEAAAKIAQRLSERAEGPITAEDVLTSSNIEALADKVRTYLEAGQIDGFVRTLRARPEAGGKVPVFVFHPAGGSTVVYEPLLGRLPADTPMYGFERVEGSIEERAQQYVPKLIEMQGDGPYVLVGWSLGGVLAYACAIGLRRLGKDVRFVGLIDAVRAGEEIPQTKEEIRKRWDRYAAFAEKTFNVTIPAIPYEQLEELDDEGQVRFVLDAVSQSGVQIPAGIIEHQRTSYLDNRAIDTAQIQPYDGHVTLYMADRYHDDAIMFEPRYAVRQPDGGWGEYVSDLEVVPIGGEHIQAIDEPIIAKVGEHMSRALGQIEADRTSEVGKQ

The filed quantity is “Percent Effect” (%). The record does not define 0% and 100%; most values in the screen are far below 50% and negative numbers occur (in some assays of this library far below -100). Compounds were drawn at random from those tested, without regard to their results. Two or more numbers in one place are separate tests of the same structure; such repeats can differ widely. A dash means the value is not listed here; it may have been measured.

A: 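Histidine-tRNA ligase, Leishmania infantum (UniProt A4I591). Enzyme assay of histidyl-tRNA synthetase; the read-out is not stated. Concentration: 30 µM. The record gives no direction; compounds that gave an IC50 in retests scored well above the rest, so higher reads as stronger inhibition. The assay is labelled LdHisRS but filed under L. infantum. Size under these conditions: about 69,000 compounds, about 410 of them at 50% or above in at least one test.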
B: 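Enzyme assay of the thioesterase domain of polyketide synthase 13; the read-out is not stated. Target: Polyketide synthase Pks13, Mycobacterium tuberculosis (UniProt I6X8D2). Tested at 30 µM. Higher reads as stronger inhibition (inferred from which compounds were picked for retests). Of about 67,000 compounds tested this way, about 300 (0.46%) reached 50% or more in at least one test.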
C: 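Cell assay of Leishmania donovani living inside macrophages; the read-out is not stated. Compounds at 30 µM. The record gives no direction; compounds that gave an IC50 in retests scored well above the rest, so higher reads as stronger inhibition. About 69,000 compounds were tested under these conditions; 1.5% (about 1,000) showed 50% or more at least once.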

Compound	A	B	C
Cc1nc(O)c2nnn(C[C@H]3CCCN3C(=O)C(C)(C)C)c2n1	8.571	-10.83	25.2
Cc1ccc(CNC2(Cc3cc(-c4ccccn4)on3)COC2)o1	12.16	-21.63	15.28
NCc1n[nH]c(-c2ccc(Br)cc2)n1	10.75	-38.87	10.38
COCCN1CC(C(=O)N(C)Cc2ccc(Cl)s2)CC1=O (stereo not shown)	5.479	-24.44	-30.7
CC(Cn1cncn1)NC(=O)NCc1csc(N(C)C)n1 (stereo not shown)	29.67	-7.259	12.41
Cc1ccc2c(c1)CN(C(=O)c1ccncc1)C(CN(C)C)CO2 (stereo not shown)	15.62	5.689	-
COc1ccc(C2CCN(C(=O)c3ncccc3OC(C)C)C2)cc1 (stereo not shown)	14.91	-	5.912
COc1cc(F)c(-n2cnc(CCNC(C)=O)c2)cc1F	25.81	-18.15	23.41
Cn1cccc1C(=O)N1CCC2(CC1)CN(c1ccsc1)C(=O)CO2	4	-0.6804	-6.494
COc1ccc(C(=O)Nc2ccccc2-c2ccc(=O)n(C)n2)cc1	12.17	-28.12	37.5
CCn1ccnc1CN1CCCN(C(=O)C2(C#N)CCCCC2)CC1	9.859	-38.37	12.82
Cc1csc([C@H]2C[C@@H]3CCN(C(=O)c4cnccn4)C[C@H]3O2)n1	7.965	-30.77	-
Cc1cc(C[C@@H]2CCC[C@H]2NCc2ccccc2C(F)(F)F)on1.O=C(O)CC(O)(CC(=O)O)C(=O)O	-	-	22.14
COc1coc(CN2CCCC(CCc3ccccc3F)C2)cc1=O (stereo not shown)	9.211	7.786	-35.81
c1cnn(CC2CCCN2c2ncnc3c2CCC3)c1 (stereo not shown)	19.33	-28.72	25.38
O=C(O)C(F)(F)F.[H][C@@]12OCCN(S(=O)(=O)C3CC3)[C@@]1([H])CC[C@H]2Oc1cccnc1	-	-	6.545
COc1ccc(CN2CCN(C(C)=O)CC3(CC(=O)N(C)C3)C2)cc1 (stereo not shown)	14.63	-7.071	-
CC(C)N1CCC(c2ccnc3c(C(=O)N4CCCC4)ncn23)CC1	10.26	-9.101	13.03
O=C(O)C(F)(F)F.[H][C@@]12C[C@@H](c3nc(C)no3)O[C@]1([H])CN(Cc1ccc3c(c1)OCO3)C2	-	-	36.73
CC[C@@H](NC(C)=O)C(=O)NCc1cccnc1Oc1ccccc1OC	6.061	-15.77	2.184
O=C(O)C(F)(F)F.O=C(O)C(F)(F)F.[H][C@@]12OCCN(CC3CCOCC3)[C@@]1([H])CC[C@H]2OCc1ccncc1	-	-	45.18
Cc1ccc(-n2nc(C)cc2N)nn1	7.5	21.86	32.7
O=C(CCn1ccccc1=O)Nc1ccc(I)cc1	24.53	1.903	21.55
Cc1cc(NC(C)C(=O)NCc2ccccc2)nc(-c2ccncc2)n1 (stereo not shown)	20	-26.66	18.18
CCc1nc(C2CCCN(C(=O)c3ccc(OC(C)C)nc3)C2)no1 (stereo not shown)	-5.333	-19.54	-43.74
CCc1cc(NCCc2cc(F)cc(F)c2)n2nccc2n1	3.614	-3.804	7.26
O=C(c1cscn1)N1CC[C@@H]2[C@@H]1CCN2c1ccccn1	10.53	-28.56	-
CC(C)C1CN(C(=O)c2cc(C3CC3)n[nH]2)CCC(=O)N1CC1CC1 (stereo not shown)	14.29	-39.79	17.16
Oc1cccc(CNCC2CCCO2)c1 (stereo not shown)	-1.571	1.941	16.26
O=C(c1coc2ccccc12)N1CCCC(O)(CO)CC1 (stereo not shown)	17.5	-33.22	11.15
O=C(O)C(F)(F)F.O=C(O)C(F)(F)F.c1ccc(CN2CCn3c(Cn4cncn4)cnc3C2)nc1	-	-	-5.607
COCCN1CCN(CCCS(C)(=O)=O)CC1C (stereo not shown)	33.85	-14.87	13.38
CCOC(=O)c1n[nH]cc1CN1CCOC(Cc2ccccc2)C1 (stereo not shown)	9.804	-5.457	1.297
CN1CCCN(c2nc(C3CC3)ns2)CC1	14.52	-5.547	36.56
Cc1cccc2[nH]c(C3CCCN(Cc4ccccc4C(=O)O)C3)nc12 (stereo not shown)	18.18	-10.76	4.376
Cc1nc(C)n(C2CCCN(C(=O)Cc3cn4ccccc4n3)C2)n1 (stereo not shown)	8.547	-10.67	29.03
O=C(c1cccnc1)N1CCOC(c2ccc(-c3cncnc3)cn2)C1 (stereo not shown)	9.375	4.515	1.844
[H][C@@]12COC[C@H](C(=O)N3CCOCC3)[C@]1([H])CN(CC1CCC1)C2	-	-	12.53
O=C(CSc1ccc2c(c1)OCCO2)NS(=O)(=O)C1CCCCC1	8.654	-3.541	-17.95
Cn1nc(C2CN(C(=O)c3cscn3)C2)c2nccnc21	22.22	-19.29	-0.4123
CCC1(CO)CCCN(C(=O)c2cc(COc3ccccc3F)[nH]n2)C1 (stereo not shown)	11.7	19.55	-9.881
CC(C(=O)Nc1sccc1C(N)=O)N(C)CCOc1ccccc1 (stereo not shown)	17.95	-13.69	32.1 & -25.87
CCS(=O)(=O)NCc1nc(C)cc(N2CCOCC2)n1	6.667	5.779	27.6
OC1(CNCc2csc(-c3ncccn3)n2)CCCNC1 (stereo not shown)	18.99	-23.35	29.26
COCCN1CCn2c(CN(C)C(C)C)cnc2C1.O=C(O)C(F)(F)F.O=C(O)C(F)(F)F	-	-	0.8736
Cc1ccc(CC(=O)N2CCCCC2Cn2cccn2)cn1 (stereo not shown)	-3.191	0.4289	35.44
COCC1CN(S(=O)(=O)Cc2ccc(C)cc2)Cc2c1cnn2C.O=C(O)C(F)(F)F (stereo not shown)	-	-	7.271
CCS(=O)(=O)c1ncc(CN(C)C)n1Cc1ccccc1	3.226	-4.12	-0.6731
O=C1CC(NCc2ccncc2)CN1Cc1cccc(F)c1 (stereo not shown)	5.769	-8.961	-17.97
COc1cccc(CN2C[C@@H]3COC[C@]3(CNC(=O)C3CC3)C2)c1	15.84	-17.36	-
Nc1nnnn1NCc1cccc2ccccc12	1.235	-5.426	34.84
[H][C@]12CCN(C(C)=O)[C@@]1([H])CC[C@H](COCc1csc(C)n1)O2	-	-	-59.45
Cc1ccc(CN2CC[C@@H]3[C@H]2CCC(=O)N3Cc2ccncc2)s1	29.41	-19.18	-
COc1ccc(CN2CCOCC3(CCN(C4CCOCC4)C3)C2)cc1.O=C(O)C(F)(F)F.O=C(O)C(F)(F)F (stereo not shown)	-	-	24.57
O=C(OCc1cccc(F)c1)c1cccc(C(=O)N2CCCC2)n1	14.52	-9.923	-1.064
CC(C)c1[nH]c2ncccc2c1CN1CCN(S(=O)(=O)N(C)C)CC1	14.18	2.793	32.15
CCCS(=O)(=O)N1Cc2ccnn2CC(c2nc(C)no2)C1.O=C(O)C(F)(F)F (stereo not shown)	-	-	6.305

4 of the entries, repeated:

Compound,A,B,C
CC[C@@H](NC(C)=O)C(=O)NCc1cccnc1Oc1ccccc1OC,6.061,-15.77,2.184
[H][C@]12CCN(C(C)=O)[C@@]1([H])CC[C@H](COCc1csc(C)n1)O2,-,-,-59.45
NCc1n[nH]c(-c2ccc(Br)cc2)n1,10.75,-38.87,10.38
O=C(O)C(F)(F)F.O=C(O)C(F)(F)F.[H][C@@]12OCCN(CC3CCOCC3)[C@@]1([H])CC[C@H]2OCc1ccncc1,-,-,45.18

Source: ChEMBL document CHEMBL3988442, “University of Dundee, Small-Polar-MMV Screening Library” (2021).